PubChem BioAssay AID1224826 | NIAID, 2016
Test: 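Knock-downs that raise or lower Tnf reporter signal after endotoxin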 (primary screen). Cell system: RAW264.7 G9 macrophages from mouse bearing reporters for p65 (GFP) and the Tnf promoter (mCherry). Reagent: siRNA pool against mouse genes, 100 nM. Time to read-out: 16 h of LPS stimulation, after 2 days of siRNA transfection. Treatment: bacterial lipopolysaccharide (Salmonella minnesota R595), 10 ng/ml. Measurement: 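Imaged Tnf reporter mCherry in nuclei, minus background, normalised per plate to the median and expressed as robust z-scores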. Direction: Tnf reporter robust z-score: higher = stronger Tnf promoter reporter signal after LPS. Hit rule: 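a well counts as active at a score of -1.3 or below (Tlr4 knock-down control median) or above 3 (raised signal); controls and wells holding fewer than 50 cells are excluded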. Calls: active = Tnf reporter clearly lowered or raised; inactive = no clear change in Tnf reporter.
Here is an unselected part of about 17,000 reagents tested. About 1,110 of all reagents (6.6%) count as active. 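Active means lowered or raised reporter signal; replicate intensities are raw and not normalised per plate.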 A number with no mark means an inactive call. The numbers tell different reagents against one gene apart. Further read-outs or replicates are left out here. Reagent sequences are not shown.

gene	reagent no.	Tnf reporter robust z-score	fewer than 50 cells in well
Epha10 (Eph receptor A10)	1	0.23	enough cells in well
Igdcc3 (immunoglobulin superfamily, DCC subclass, member 3)	1	0.43	enough cells in well
4933436I01Rik (RIKEN cDNA 4933436I01 gene)	1	-1.09	enough cells in well
Naa50 (N(alpha)-acetyltransferase 50, NatE catalytic subunit)	1	4.88 (active)	enough cells in well
Ccdc85a (coiled-coil domain containing 85A)	1	-0.78	enough cells in well
Pclaf (PCNA clamp associated factor)	1		fewer than 50 cells per well; well left out of calls
Zbtb10 (zinc finger and BTB domain containing 10)	1	-1.16	enough cells in well
Lysmd3 (LysM, putative peptidoglycan-binding, domain containing 3)	1	-1.65 (active)	enough cells in well
Scn11a (sodium channel, voltage-gated, type XI, alpha)	1	0.44	enough cells in well
Pdgfa (platelet derived growth factor, alpha)	1	-0.12	enough cells in well
Akap11 (A kinase anchor protein 11)	1	-0.36	enough cells in well
Tas2r123 (taste receptor, type 2, member 123)	1	0.9	enough cells in well
Acyp2 (acylphosphatase 2, muscle type)	1		fewer than 50 cells per well; well left out of calls
Mefv (Mediterranean fever)	1	-0.37	enough cells in well
Alox5ap (arachidonate 5-lipoxygenase activating protein)	1	0.11	enough cells in well
Fignl1 (fidgetin-like 1)	1	-0.82	enough cells in well
Babam2 (BRISC and BRCA1 A complex member 2)	1	-1.07	enough cells in well
Gm9725 (predicted gene 9725)	1	1.09	enough cells in well
Garre1 (granule associated Rac and RHOG effector 1)	1		fewer than 50 cells per well; well left out of calls
Chrna9 (cholinergic receptor, nicotinic, alpha polypeptide 9)	1	-0.82	enough cells in well
Mzt1 (mitotic spindle organizing protein 1)	1	1.52	enough cells in well
Comtd1 (catechol-O-methyltransferase domain containing 1)	1	-0.35	enough cells in well
Cds2 (CDP-diacylglycerol synthase 2)	1	0.05	enough cells in well
Frat2 (frequently rearranged in advanced T cell lymphomas 2)	1	-0.08	enough cells in well
Nfatc3	1	-1.3 (active)	enough cells in well
Dst (dystonin)	1	0.04	enough cells in well
Zpld1 (zona pellucida like domain containing 1)	1	1.52	enough cells in well
Tmem184c (transmembrane protein 184C)	1	-1.09	enough cells in well
E2f2 (E2F transcription factor 2)	1	2.11	enough cells in well
E2f2 (E2F transcription factor 2)	2	0.27	enough cells in well
Nkd1 (naked cuticle 1)	1	1.04	enough cells in well
Krtap6-5 (keratin associated protein 6-5)	1	1.1	enough cells in well
Rhoj (ras homolog family member J)	1	-1.54 (active)	enough cells in well
H2ac6 (H2A clustered histone 6)	1	2.36	enough cells in well
Bcdin3d (BCDIN3 domain containing)	1	0.63	enough cells in well
Trmt112 (tRNA methyltransferase 11-2)	1	-0.2	enough cells in well
Tcf21 (transcription factor 21)	1	-0.79	enough cells in well
Slc25a33	1	-0.32	enough cells in well
Gnmt (glycine N-methyltransferase)	1	0.35	enough cells in well
Gad1 (glutamate decarboxylase 1)	1	-0.7	enough cells in well
B3galt2	1	-0.64	enough cells in well
Akap5 (A kinase anchor protein 5)	1	-0.71	enough cells in well
F8 (coagulation factor VIII)	1	-0.01	enough cells in well
Vmn1r37 (vomeronasal 1 receptor 37)	1	2.03	enough cells in well
Elp3 (elongator acetyltransferase complex subunit 3)	1	-0.45	enough cells in well
A430090L17Rik (RIKEN cDNA A430090L17 gene)	1	-0.02	enough cells in well
Usp4 (ubiquitin specific peptidase 4)	1	0.77	enough cells in well
Ssxb13 (SSX member B13)	1		fewer than 50 cells per well; well left out of calls
Usp26 (ubiquitin specific peptidase 26)	1	-0.35	enough cells in well
Adrb3 (adrenergic receptor, beta 3)	1	0.67	enough cells in well
Ubl4a (ubiquitin-like 4A)	1	-0.22	enough cells in well
Apmap (adipocyte plasma membrane associated protein)	1	3.24 (active)	enough cells in well
Cnot8 (CCR4-NOT transcription complex, subunit 8)	1	1.22	enough cells in well
Unc93a (unc-93 homolog A)	1		fewer than 50 cells per well; well left out of calls
Cyp2j9 (cytochrome P450, family 2, subfamily j, polypeptide 9)	1	-0.53	enough cells in well
Gabrr2 (gamma-aminobutyric acid type A receptor subunit rho 2)	1		fewer than 50 cells per well; well left out of calls
Lao1 (L-amino acid oxidase 1)	1	0.69	enough cells in well
Aldh3b3 (aldehyde dehydrogenase 3 family, member B3)	1	0.77	enough cells in well
